Source: US20040023313A1 (Amgen, published 2004)
No constants are given. Whether binding was seen depends on the method and setting. Some results given as binding are weak or reduced against the parent protein; the word gives no strength.

How the values were obtained:
[1] = target: T1, CHO human OPGL (hOPGL) 140 (human, UniProt O14788 140-317); assay: SPR (BIAcore 2000), antibody captured on Protein G
T1 construct: also called CHO hOPGL 140
T1 sequence (looked up): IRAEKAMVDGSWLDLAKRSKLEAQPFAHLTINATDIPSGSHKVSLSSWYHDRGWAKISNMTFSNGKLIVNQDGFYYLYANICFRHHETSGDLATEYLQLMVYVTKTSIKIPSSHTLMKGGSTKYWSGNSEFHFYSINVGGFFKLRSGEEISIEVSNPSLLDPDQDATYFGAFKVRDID

[2] = target: purified recombinant OPGL from CHO cells or E. coli (immunogen and ELISA coat of Example 1) (Homo sapiens (Human)) (UniProt O14788); assay: ELISA, plate coated with purified recombinant OPGL

binding [1]: binds | binding [2]: binds
B1: 22B3 anti-OPGL antibody (antibody, human IgG1, kappa, V domains shown)
VH: EVQLVQSGGGLVHPGGSLRLSCEGSGFTFSSNGMHWVRQTPGKGLEWVSGIGTAGGTYYADSVKGRFTISRDNVKKSLYLQMNSLRAEDMAIYYCVRKNWGWFDPWGQGALVTVSS
VL: EIVLTQSPATLSLSPGERATLSCRASQSVNSYLAWFQQKPGQAPRLLIYDASNRATGIPARFSGSGSGTDFTLTISSLEPEDFAIYYCQQRSNWPPFTFGQGTKLEIKR
notes: Fully human IgG1 kappa from HuMab mice
